In this experiment the test system is CD2F1 mice, L1210 leukemia ip, survival T/C. Nature of the experiment: NCI In Vivo Anticancer Drug Screen. Data for tumor model L1210 Leukemia (intraperitoneal) in CD2F1 (CDF1) mice. The settings on record: higher T/C = longer survival. Summed up: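 Implant tumor; dose compound or vehicle; measure endpoint in both groups; report treated divided by control.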

Setting [1] is: T/C endpoint: mean survival time, dose: 100.0 mg/kg/injection, schedule: Q04DX003 (ip), vehicle: saline.
[2] abbreviates: T/C endpoint: mean survival time, dose: 200.0 mg/kg/injection, schedule: Q04DX003 (ip), vehicle: saline.
The mark [3] stands for this setting: T/C endpoint: mean survival time, dose: 400.0 mg/kg/injection, schedule: Q01DX001 (ip), vehicle: saline.
Setting [4] is: T/C endpoint: mean survival time, dose: 400.0 mg/kg/injection, schedule: Q04DX003 (ip), vehicle: saline.
The mark [5] stands for this setting: T/C endpoint: mean survival time, dose: 200.0 mg/kg/injection, schedule: Q01DX009 (ip), vehicle: saline with Tween-80.
Setting [6] is: T/C endpoint: mean survival time, dose: 400.0 mg/kg/injection, schedule: Q04DX002 (ip), vehicle: saline with Tween-80.
Setting [7] is: T/C endpoint: mean survival time, dose: 200.0 mg/kg/injection, schedule: Q04DX003 (ip), vehicle: saline with Tween-80.
Setting [8] is: T/C endpoint: mean survival time, dose: 400.0 mg/kg/injection, schedule: Q04DX003 (ip), vehicle: saline with Tween-80.
[9] abbreviates: T/C endpoint: mean survival time, dose: 100.0 mg/kg/injection, schedule: Q01DX009 (ip), vehicle: saline with Tween-80.
The mark [10] stands for this setting: T/C endpoint: mean survival time, dose: 400.0 mg/kg/injection, schedule: Q01DX009 (ip), vehicle: saline with Tween-80.

The list shows only some results of the screen, not a fair sample: it is rich in T/C values a quarter to a half above the control, in often repeated tests (any T/C) and in doses without a T/C. Other doses and runs of a compound stand elsewhere. T/C is the treated group as % of the vehicle group. Some entries give survivors of the animals treated and no T/C: the source files T/C as zero there, which appears to mark a toxic dose or a test without result, not a measured value. Some doses without a T/C left all or most animals alive at the check, yet need not have been tolerated: the source hardly ever lists a survival T/C far under the control, and the zero likely stands for such cases as well. Counts of survivors are from the toxicity check (mostly the fifth day) where no day follows; animals may have died later. Schedules are NCI's codes, read here as Q, the interval in days (D) or hours (H), X, the number of doses. Some entries hold several experiments; their values stand side by side, smallest first. Where survival is the endpoint, the PubChem record calls one and a half times the control and up active, and a quarter to a half above the control has no call in these data; cut-offs in other NCI protocols can differ. Some T/C values are followed by the survivors on the day toxicity was checked, most often the fifth; where none is given, no animal had died by that day.

`COC(OC(CO)C(O)S(=O)(=O)O)C(O)S(=O)(=O)O` (centres undefined): the T/C reads like this: (T/C endpoint: mean survival time, dose: 50.0 mg/kg/injection, schedule: Q03HX008 (ip), vehicle: saline) 126 % of control; (T/C endpoint: mean survival time, dose: 50.0 mg/kg/injection, schedule: Q03HX024 (ip), vehicle: saline) 126 % of control; (T/C endpoint: mean survival time, dose: 100.0 mg/kg/injection, schedule: Q01DX009 (ip), vehicle: saline) 133 % of control; (T/C endpoint: mean survival time, dose: 100.0 mg/kg/injection, schedule: Q03HX024 (ip), vehicle: saline) 134 % of control; under setting [1], 128 % of control; (T/C endpoint: mean survival time, dose: 200.0 mg/kg/injection, schedule: Q01DX001 (ip), vehicle: saline) 127 % of control. The T/C is 143 % of control (T/C endpoint: mean survival time, dose: 200.0 mg/kg/injection, schedule: Q01DX009 (ip), vehicle: saline); 139 % of control under setting [2]; 135 % of control under setting [3]; 143 % of control under setting [4]; 126 % of control (T/C endpoint: mean survival time, dose: 400.0 mg/kg/injection, schedule: Q08DX002 (ip), vehicle: saline); 144 % of control (T/C endpoint: mean survival time, dose: 800.0 mg/kg/injection, schedule: Q01DX001 (ip), vehicle: saline). Also, the T/C (T/C endpoint: mean survival time, dose: 800.0 mg/kg/injection, schedule: Q08DX002 (ip), vehicle: saline) was 141 % of control. The survivor count is, setting by setting: (T/C endpoint: mean survival time, dose: 200.0 mg/kg/injection, schedule: Q03HX008 (ip), vehicle: saline) 0 of 10; (T/C endpoint: mean survival time, dose: 200.0 mg/kg/injection, schedule: Q03HX016 (ip), vehicle: saline) 0 of 10; (T/C endpoint: mean survival time, dose: 200.0 mg/kg/injection, schedule: Q03HX024 (ip), vehicle: saline) 0 of 10; (T/C endpoint: mean survival time, dose: 400.0 mg/kg/injection, schedule: Q03HX008 (ip), vehicle: saline) 0 of 10; (T/C endpoint: mean survival time, dose: 400.0 mg/kg/injection, schedule: Q03HX016 (ip), vehicle: saline) 0 of 10; (T/C endpoint: mean survival time, dose: 400.0 mg/kg/injection, schedule: Q03HX024 (ip), vehicle: saline) 0 of 10.

`CC[C@H]1CN2CCc3cc(OC)c(OC)cc3[C@@H]2C[C@@H]1C[C@@H]1c2cc(OC)c(OC)cc2CCN1N=O`: under setting [1], the survivor count is 6 of 6.

With `CCN(CC)C(=O)c1ccc[n+](CC(=O)Nc2ccccc2)c1`, the survivor count runs as follows: under setting [2], 3 of 6; under setting [4], 0 of 6.

Regarding `O=C(CNC(=O)c1ccccc1)N/N=C/c1ccncc1`, the survivor count under setting [5] is listed as 4 of 6.

As to `Cn1c(=O)ccc2ccccc21`, the survivor count under setting [6] is listed as 0 of 3.

As for `C[C@@H]1C[C@@]2(C)[C@@H](CC[C@@H]3[C@@H]2CC[C@@]2(C)[C@H]3CC[C@]2(C)O)CC1=O`, the survivor count under setting [7] is given as 6 of 6 and the survivor count under setting [8] was 5 of 6.

Regarding `COc1ccc(OC)c(NC(=O)NNC(=O)CNC(=O)Nc2cccc(C)n2)c1`, the survivor count under setting [9] was 6 of 6.

For the molecule `CCCCCCCCCCCCCCCCCCSC1=CC(=O)C(OC)=C(OC)C1=O`, the survivor count (T/C endpoint: mean survival time, dose: 12.5 mg/kg/injection, schedule: Q01DX009 (ip), vehicle: Klucel (hydroxypropylcellulose) (HPC)) was 6 of 6 and the survivor count (T/C endpoint: mean survival time, dose: 25.0 mg/kg/injection, schedule: Q01DX009 (ip), vehicle: Klucel (hydroxypropylcellulose) (HPC)) is recorded as 6 of 6.

For the molecule `c1ccc2c[n+](CCc3c[nH]c4ccccc34)ccc2c1`, the survivor count (T/C endpoint: mean survival time, dose: 100.0 mg/kg/injection, schedule: Q04DX002 (ip), vehicle: other) was 0 of 3.

Turning to `O=C1C=CC(=O)N1c1ccc(Br)cc1Cl`, the survivor count under setting [9] was 0 of 6; the survivor count (T/C endpoint: mean survival time, dose: 100.0 mg/kg/injection, schedule: Q04DX003 (ip), vehicle: saline with Tween-80) is recorded as 0 of 6; the survivor count under setting [5] is 0 of 6; the survivor count under setting [7] is recorded as 0 of 6; the survivor count under setting [10] is listed as 0 of 6; the survivor count under setting [8] is 0 of 6.

Consider `CCCCCCCCCCCCCCCC(=O)N(CCC#N)CCC#N`, for which the survivor count is listed as 3 of 6 under setting [9] and 2 of 6 under setting [10].

`CCCCCCCCCCCCCCCCCC[n+]1ccc(C(=O)c2ccccc2)cc1`: the survivor count (T/C endpoint: mean survival time, dose: 37.5 mg/kg/injection, schedule: Q01DX001 (ip), vehicle: other) is given as 3 of 6.

Regarding `CN1CCCN(C)C1c1cc(Cl)ccc1O`, the survivor count by setting is: under setting [9], 2 of 6; under setting [5], 1 of 6; under setting [10], 0 of 6.

Take `N#Cc1c(F)c(F)c(Oc2c(F)c(F)c(F)c(F)c2F)c(F)c1F`: the survivor count under setting [8] is 4 of 6.

`COc1ccc(CCNC2c3ccccc3C=Cc3ccccc32)cc1OC`: the survivor count by setting is: (T/C endpoint: mean survival time, dose: 25.0 mg/kg/injection, schedule: Q01DX001 (ip), vehicle: saline with Tween-80) 3 of 3; (T/C endpoint: mean survival time, dose: 100.0 mg/kg/injection, schedule: Q01DX001 (ip), vehicle: saline with Tween-80) 3 of 3; under setting [3], 1 of 3.

For the molecule `O=C(CCl)c1cc(Cl)c(O)c(Cl)c1`, the survivor count reads like this: (T/C endpoint: mean survival time, dose: 100.0 mg/kg/injection, schedule: Q01DX001 (ip), vehicle: carboxymethylcellulose (CMC)) 2 of 4; (T/C endpoint: mean survival time, dose: 200.0 mg/kg/injection, schedule: Q01DX001 (ip), vehicle: carboxymethylcellulose (CMC)) 1 of 4; (T/C endpoint: mean survival time, dose: 400.0 mg/kg/injection, schedule: Q01DX001 (ip), vehicle: carboxymethylcellulose (CMC)) 0 of 4.

Take `CCOC(NCc1ccc(OC)c(OC)c1)OCC`: the survivor count under setting [3] is listed as 0 of 6.

Consider `O=C(Nc1c(Oc2ccc(Cl)cc2)ccc(Cl)c1S(=O)(=O)O)Nc1c(Oc2ccc(Cl)c(Cl)c2)ccc(Cl)c1S(=O)(=O)O`, for which, under setting [3], the survivor count is given as 2 of 6.

For the molecule `Nc1nc2nc[n-]c2c(=O)[nH]1.[NH2-].[NH2-].[NH2-].[NH2-].[NH2-].[Ru+6]`, the survivor count is, setting by setting: (T/C endpoint: mean survival time, dose: 50.0 mg/kg/injection, schedule: Q04DX003 (ip), vehicle: water) 6 of 6; (T/C endpoint: mean survival time, dose: 100.0 mg/kg/injection, schedule: Q04DX003 (ip), vehicle: water) 4 of 6.

For the molecule `CN(C)N=Nc1cc(C(N)=O)cc(C(N)=O)c1`, the T/C (T/C endpoint: mean survival time, dose: 150.0 mg/kg/injection, schedule: Q01DX009 (ip), vehicle: Klucel (hydroxypropylcellulose) (HPC)) is 134 % of control. Moreover, where the note is “T/C endpoint: mean survival time, dose: 300.0 mg/kg/injection, schedule: Q01DX009 (ip), vehicle: Klucel (hydroxypropylcellulose) (HPC)”, the survivor count is 5 of 6.

Consider `CCOC(=O)Cn1cnc2cc(C)c(C)cc21`, for which the survivor count under setting [10] was 3 of 6.

Regarding `CCOC(=O)c1[nH]cnc1/N=N/N(C)CCO`, the T/C runs as follows: under setting [9], 138 % of control; under setting [5], 144 % of control.

For the molecule `NC(CSS(=O)(=O)O)=NC1CCCCC1`, the survivor count reads like this: (T/C endpoint: mean survival time, dose: 100.0 mg/kg/injection, schedule: Q04DX002 (ip), vehicle: saline with Tween-80) 0 of 3; (T/C endpoint: mean survival time, dose: 200.0 mg/kg/injection, schedule: Q04DX002 (ip), vehicle: saline with Tween-80) 0 of 3; under setting [6], 0 of 3.

With `COc1ccc(CC(=O)NCCc2ccc3c(c2)OCO3)cc1`, the survivor count (T/C endpoint: mean survival time, dose: 400.0 mg/kg/injection, schedule: Q01DX001 (ip), vehicle: saline with Tween-80) is 1 of 6.

For `O=NN(CCCl)C(=O)Nc1ccc(CCO)cc1`, the T/C reads like this: (T/C endpoint: mean survival time, dose: 1.35 mg/kg/injection, schedule: Q01DX009 (ip), vehicle: acetone) 145 % of control [5 of 6 alive]; (T/C endpoint: mean survival time, dose: 5.0 mg/kg/injection, schedule: Q01DX001 (ip), vehicle: other) 147 % of control. In addition, where the note is “T/C endpoint: mean survival time, dose: 78.0 mg/kg/injection, schedule: Q01DX001 (ip), vehicle: other”, the survivor count is 6 of 6.

Turning to `O=C(Nc1ccc(C2=NCCN2)cc1)Nc1cccc(NC(=O)Nc2ccc(C3=NCCN3)cc2)c1`, the survivor count (T/C endpoint: mean survival time, dose: 15.0 mg/kg/injection, schedule: Q01DX008 (iv), vehicle: other) is on record as 0 of 7.

For `CNC(=S)C#N`, the survivor count is, setting by setting: (T/C endpoint: median survival time, dose: 100.0 mg/kg/injection, schedule: Q01DX005 (ip), vehicle: saline + Tween-80 + alcohol) 0 of 6 and 4 of 6; (T/C endpoint: median survival time, dose: 200.0 mg/kg/injection, schedule: Q01DX005 (ip), vehicle: saline + Tween-80 + alcohol) 6 of 6; (T/C endpoint: median survival time, dose: 400.0 mg/kg/injection, schedule: Q01DX005 (ip), vehicle: saline + Tween-80 + alcohol) 0 of 6.

Source of the values: PubChem BioAssay AID256 (DTP/NCI, 2004).
